According to publication PMC6021502, “Cannabigerol Action at Cannabinoid CB1 and CB2 Receptors and at CB1–CB2 Heteroreceptor Complexes” (Frontiers in Pharmacology, 2018):
These are yes or no findings as the source states them, for the method shown. In cells and extracts the contact can be indirect. Some entries that bind do so weakly or less than the wild type.

Protein sequences, listed by entry. Tags and fused reporters are not part of them.
UniProt P21554: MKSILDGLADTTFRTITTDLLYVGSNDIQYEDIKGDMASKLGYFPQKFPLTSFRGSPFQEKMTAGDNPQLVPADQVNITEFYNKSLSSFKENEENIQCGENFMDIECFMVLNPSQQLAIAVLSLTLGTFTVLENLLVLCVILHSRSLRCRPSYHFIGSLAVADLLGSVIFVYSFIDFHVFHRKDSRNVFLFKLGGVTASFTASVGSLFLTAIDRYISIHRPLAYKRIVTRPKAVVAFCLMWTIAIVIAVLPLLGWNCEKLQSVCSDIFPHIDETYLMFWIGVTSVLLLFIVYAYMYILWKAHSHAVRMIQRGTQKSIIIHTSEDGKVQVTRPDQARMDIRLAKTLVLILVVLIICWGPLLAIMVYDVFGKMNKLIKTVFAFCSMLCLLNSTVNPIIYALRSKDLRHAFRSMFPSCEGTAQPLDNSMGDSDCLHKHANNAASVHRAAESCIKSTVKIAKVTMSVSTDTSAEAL
UniProt P34972: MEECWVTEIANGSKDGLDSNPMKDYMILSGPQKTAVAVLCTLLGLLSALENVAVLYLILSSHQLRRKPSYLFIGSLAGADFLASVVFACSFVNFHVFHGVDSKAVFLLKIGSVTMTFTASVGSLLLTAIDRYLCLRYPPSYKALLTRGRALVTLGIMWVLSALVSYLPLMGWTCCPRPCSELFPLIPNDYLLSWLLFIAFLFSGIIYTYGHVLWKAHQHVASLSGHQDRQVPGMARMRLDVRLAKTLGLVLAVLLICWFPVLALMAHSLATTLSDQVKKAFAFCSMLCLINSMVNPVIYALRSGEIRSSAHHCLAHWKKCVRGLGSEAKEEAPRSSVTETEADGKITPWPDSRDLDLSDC
UniProt P32121: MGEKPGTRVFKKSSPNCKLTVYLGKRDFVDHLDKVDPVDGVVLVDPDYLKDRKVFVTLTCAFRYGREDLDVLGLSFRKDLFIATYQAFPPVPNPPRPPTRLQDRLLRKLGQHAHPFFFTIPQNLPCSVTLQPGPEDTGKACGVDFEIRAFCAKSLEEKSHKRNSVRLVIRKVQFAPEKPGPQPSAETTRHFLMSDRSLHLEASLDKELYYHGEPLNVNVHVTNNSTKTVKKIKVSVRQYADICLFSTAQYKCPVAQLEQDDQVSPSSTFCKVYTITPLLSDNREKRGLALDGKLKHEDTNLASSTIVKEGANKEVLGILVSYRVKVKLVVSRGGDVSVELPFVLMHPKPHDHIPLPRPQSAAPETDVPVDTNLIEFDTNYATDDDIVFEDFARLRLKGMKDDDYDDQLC

What was measured:
CB1R-YFP (human) = CB1R-YFP (human) (UniProt P21554); assay: FRET or BRET; BRET between β-arrestin 2-Rluc and receptor-YFP in living HEK-293T cells 48 h after transfection; cells treated with CBG (1 nM to 10 μM, 15 min); CB1R-YFP cells also with 100 nM AEA or ACEA with or without 100 nM or 1 μM CBG; CB2R-YFP cells also with co-expressed untagged CB1R; 5 μM coelenterazine H; read-out in mBRET units
CB2R-YFP (human) = CB2R-YFP (human) (UniProt P34972); assay: as above

“β-arrestin 2-Rluc (from UniProt P32121 1-409)” was tested, and the binding (CB1R-YFP (human)) was “binds” and the binding (CB2R-YFP (human)) was “binds”.
